“And” between values parts separate entries of the source, which are not always exact repeats. Identical values can stand only once. Further values from the same series stand in other lists.
Target: T1, PfMDH (Plasmodium falciparum, UniProt Q6VVP7)
T1 construct: The full-length WT PfMDH gene was cloned into pETM-13; made in house; host or cells: E. coli Rosetta 2 (DE3) pLysS
Experiment: Thermal shift assay (TSA)
Type: binding
Details: for TSA melting curve raw signal: triplicate columns; for TSA melting curve raw fluorescence signal: three replicate columns
Procedure: The TSA experiment was conducted in a BioRad CSX 96 (Biorad). Each reaction consisted of 1 mM of compound (100 mM stock in 100% (v/v) DMSO) and 10 μM PfMDH in 100 mM Na–phosphate buffer pH 7.4, 400 mM NaCl, and 10× Sypro Orange (Invitrogen) for a total volume of 100 μl. Control experiments were performed with 1% (v/v) DMSO. Inflection points were determined using BioRad CFX96™ control software. Generally, a temperature increase of over 1 °C is interpreted as a result of the stabilization of the protein-ligand interaction. On the contrary, a negative shift is considered a destabilization caused by the fragment.

Sequences of proteins named here, by UniProt entry; tags and fusion partners are left off.
UniProt Q6VVP7, entry or part of it: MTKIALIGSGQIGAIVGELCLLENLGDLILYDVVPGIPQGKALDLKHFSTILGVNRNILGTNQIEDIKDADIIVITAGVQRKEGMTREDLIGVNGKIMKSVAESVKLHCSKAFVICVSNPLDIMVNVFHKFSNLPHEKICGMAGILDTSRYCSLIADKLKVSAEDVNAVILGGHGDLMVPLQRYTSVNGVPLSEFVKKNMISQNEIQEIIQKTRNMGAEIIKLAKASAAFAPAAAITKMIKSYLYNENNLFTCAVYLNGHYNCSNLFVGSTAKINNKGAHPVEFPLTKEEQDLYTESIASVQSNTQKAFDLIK

## Cc1ccc(-c2csc(N)n2)cc1C [compound 5a]
Temperature 25.5
  TSA melting curve raw signal: 4109,14754690857 and 4335,81485549876 and 4113,56049603613
Temperature 26
  TSA melting curve raw signal: 4091,79242828967 and 4310,40279474088 and 4090,64619129944
Temperature 26.5
  TSA melting curve raw signal: 4074,43730967076 and 4284,99073398301 and 4067,73188656275
Temperature 27
  TSA melting curve raw signal: 4057,08219105186 and 4259,57867322513 and 4044,81758182606
Temperature 27.5
  TSA melting curve raw signal: 4039,72707243295 and 4234,16661246725 and 4021,90327708934
Temperature 28
  TSA melting curve raw signal: 4022,37195381405 and 4208,75455170937 and 3998,98897235265
Temperature 44.5
  TSA melting curve raw signal: 4239,15172605318
Temperature 45
  TSA melting curve raw signal: 4248,82252980672 and 4180,40707517298 and 4295,19781633361
Temperature 45.5
  TSA melting curve raw signal: 4308,80692955209 and 4227,02885004101 and 4355,47285891724
Temperature 46
  TSA melting curve raw signal: 4373,25216543506 and 4280,01131774685 and 4419,52494140658
Temperature 46.5
  TSA melting curve raw signal: 4441,98779089746 and 4338,90054761303 and 4487,12433006209
Temperature 47
  TSA melting curve raw signal: 4514,88248655477 and 4404,26532914514 and 4557,96924061725
Temperature 47.5
  TSA melting curve raw signal: 4592,04281656696 and 4476,38641299924 and 4632,39297094883
Temperature 48
  TSA melting curve raw signal: 4673,74526635183 and 4556,17632878294 and 4710,74582268116
Temperature 48.5
  TSA melting curve raw signal: 4760,34240410445 and 4643,13048449794 and 4793,65108888582
Temperature 49
  TSA melting curve raw signal: 4852,47499025856 and 4738,40725357913 and 4881,50819903385
Temperature 49.5
  TSA melting curve raw signal: 4949,59404810981 and 4841,46234366862 and 4974,90738971605
Temperature 50
  TSA melting curve raw signal: 5051,4667385107 and 4952,07808585402 and 5073,48548608683
Temperature 50.5
  TSA melting curve raw signal: 5157,4226483497 and 5069,46914536839 and 5177,48404858169
Temperature 51
  TSA melting curve raw signal: 5267,95599531649 and 5194,20283492665 and 5287,15827915382
Temperature 51.5
  TSA melting curve raw signal: 5383,16904896146 and 5325,43240682749 and 5402,89251949692
Temperature 52
  TSA melting curve raw signal: 5503,69155236101 and 5463,09196162394 and 5524,23646357663
Temperature 52.5
  TSA melting curve raw signal: 5629,82572060057 and 5606,91542964419 and 5651,56517768753
Temperature 53
  TSA melting curve raw signal: 5762,201846172 and 5756,51514590588 and 5784,33818752418
Temperature 53.5
  TSA melting curve raw signal: 5899,78683243396 and 5910,27380542886 and 5921,38100586449
Temperature 54
  TSA melting curve raw signal: 6041,25099411936 and 6066,34642139633 and 6060,49486687824
Temperature 54.5
  TSA melting curve raw signal: 6185,41764751827 and 6222,50846973011 and 6199,89319894017
Temperature 55
  TSA melting curve raw signal: 6330,08312180185 and 6375,48389931662 and 6336,48762736286
Temperature 55.5
  TSA melting curve raw signal: 6472,46690724421 and 6522,36737313559 and 6467,16260655791
Temperature 56
  TSA melting curve raw signal: 6610,271830967 and 6659,9986451875 and 6588,92984546
Temperature 56.5
  TSA melting curve raw signal: 6739,94944120666 and 6785,12951511817 and 6699,01024230288
Temperature 57
  TSA melting curve raw signal: 6858,27947960354 and 6895,60286641402 and 6794,93317175531
Temperature 57.5
  TSA melting curve raw signal: 6962,55440112448 and 6989,60698728704 and 6874,9747655596
Temperature 58
  TSA melting curve raw signal: 7050,25600441948 and 7064,90744842307 and 6937,99061566162
Temperature 58.5
  TSA melting curve raw signal: 7119,54329827173 and 7120,86859609527 and 6982,99248409316
Temperature 59
  TSA melting curve raw signal: 7170,33809283212 and 7157,9912435777 and 7010,83858966031
Temperature 59.5
  TSA melting curve raw signal: 7202,92909998078 and 7176,88734940722 and 7022,8587428136
Temperature 60
  TSA melting curve raw signal: 7218,69413040578 and 7179,54376622874 and 7020,95225978527
Temperature 60.5
  TSA melting curve raw signal: 7219,72213438909 and 7168,99371274419 and 7007,11890541707
Temperature 61
  TSA melting curve raw signal: 7208,44281237741 and 7148,35081015465 and 6984,79246706028
Temperature 61.5
  TSA melting curve raw signal: 7187,79628678274 and 7120,34808508335 and 6956,11439175697
Temperature 62
  TSA melting curve raw signal: 7160,29045584435 and 7087,36786186386 and 6923,04719846659
Temperature 62.5
  TSA melting curve raw signal: 7128,22017974425 and 7051,28787216107 and 6887,19176719123
Temperature 63
  TSA melting curve raw signal: 7093,57296273517 and 7013,65607738955 and 6850,25753359803
Temperature 63.5
  TSA melting curve raw signal: 7057,43122835243 and 6974,72372382632 and 6812,56687018174
Temperature 64
  TSA melting curve raw signal: 7020,60869116906 and 6935,2842454111 and 6774,70360365512
Temperature 64.5
  TSA melting curve raw signal: 6983,30737703911 and 6895,64922967323 and 6736,6283110517
Temperature 65
  TSA melting curve raw signal: 6945,45514823899 and 6856,04765049736 and 6698,92336210102
Temperature 65.5
  TSA melting curve raw fluorescence signal: 6816,06984399857 and 6661,12750154168
Temperature 66
  TSA melting curve raw fluorescence signal: 6868,79196614962 and 6776,54537079108 and 6623,30427835847
Temperature 66.5
  TSA melting curve raw fluorescence signal: 6829,57456616634 and 6737,13807260659 and 6585,71071228662
Temperature 67
  TSA melting curve raw fluorescence signal: 6790,29048516787 and 6698,28027972071 and 6548,78708460424
Temperature 67.5
  TSA melting curve raw fluorescence signal: 6751,30464360266 and 6659,66329633009 and 6511,88081925756
Temperature 68
  TSA melting curve raw fluorescence signal: 6712,27098942751 and 6621,767765955 and 6475,83035297636
Temperature 68.5
  TSA melting curve raw fluorescence signal: 6673,46528290982 and 6584,10053839723 and 6440,70138625582
Temperature 69
  TSA melting curve raw fluorescence signal: 6635,23579718127 and 6546,77549517268 and 6405,96257303639
Temperature 69.5
  TSA melting curve raw fluorescence signal: 6597,30330249868 and 6509,33805652254 and 6371,51342609928
Temperature 70
  TSA melting curve raw fluorescence signal: 6559,32794712733 and 6472,50217794297 and 6337,81620267592
Temperature 70.5
  TSA melting curve raw fluorescence signal: 6521,67229147987 and 6436,14986442836 and 6304,20880884812
Temperature 71
  TSA melting curve raw fluorescence signal: 6483,95403711455 and 6400,42407943148 and 6270,69796640814
Temperature 71.5
  TSA melting curve raw fluorescence signal: 6446,55299781899 and 6365,39020540932 and 6237,53529497521
Temperature 72
  TSA melting curve raw fluorescence signal: 6409,34859672489 and 6331,29679912675 and 6204,8186165163
Temperature 72.5
  TSA melting curve raw fluorescence signal: 6372,53853390467 and 6297,73614072767 and 6172,34644540474
Temperature 73
  TSA melting curve raw fluorescence signal: 6335,87674187408 and 6264,55367580359 and 6140,54484959049
Temperature 90
  TSA melting curve raw fluorescence signal: 5354,08687671595 and 5219,8663595288
Temperature 90.5
  TSA melting curve raw fluorescence signal: 5159,98197137264 and 5327,26814051591 and 5190,56997061565
Temperature 91
  TSA melting curve raw fluorescence signal: 5132,43123959746 and 5300,68513038893 and 5161,66890205614
Temperature 91.5
  TSA melting curve raw fluorescence signal: 5105,47048570762 and 5274,15780377201 and 5133,05062357503
Temperature 92
  TSA melting curve raw fluorescence signal: 5078,52506904552 and 5247,79827791617 and 5104,63584753507
Temperature 92.5
  TSA melting curve raw fluorescence signal: 5050,85810590228 and 5221,48414086959 and 5075,55768207688
Temperature 93
  TSA melting curve raw fluorescence signal: 5023,31389091435 and 5194,70816789367 and 5046,189529136
Temperature 93.5
  TSA melting curve raw fluorescence signal: 4995,49712748815 and 5167,80306736994 and 5016,38286515834
Temperature 94
  TSA melting curve raw fluorescence signal: 4967,45404082663 and 5140,38714632172 and 4986,56787422172
Temperature 94.5
  TSA melting curve raw fluorescence signal: 4939,51140926284 and 5112,90610420524 and 4956,49952228776
Temperature 95
  TSA melting curve raw fluorescence signal: 4911,46428466902 and 5084,16940925847 and 4927,08676586038

Source: PMC8355244, “A fragment-based approach identifies an allosteric pocket that impacts malate dehydrogenase activity” (Communications Biology, 2021)
